Values of other authors, collected in patent publication US20150291610A1, “C20' Urea Derivatives of Vinca Alkaloids” (THE SCRIPPS RESEARCH INSTITUTE, priority 2012, published 2015).
Some results were stated once for a whole list of compounds, not compound by compound.

Tested on: HCT116 (human colorectal carcinoma) cells
Settings: initial report, Leggans et al. 2012; cited from earlier work

CCC1(NC(=O)OC)CC2CN(CCc3c([nH]c4ccccc34)C(C(=O)OC)(c3cc4c(cc3OC)N(C)C3C(O)(C(=O)OC)C(OC(C)=O)C5(CC)C=CCN6CCC43C65)C2)C1 (stereo not shown) [Compound 10]
fold less active than the urea 11: more than 10 fold
